These are yes or no findings as the source states them, for the method shown. Binding seen in cells or lysates may run through a third protein. Here binding means that the protein was enriched with, or labelled near, the bait; the list need not be complete.
Target: Flag-tagged RRM2B (Flag at the N-terminus), ribonucleotide reductase small subunit B (human) (UniProt Q7LG56)
Experiment: affinity purification with mass spectrometry; large-scale anti-Flag immunoprecipitation from whole cell lysate of doxycycline-induced 293 T-REx-Flag-RRM2B cells, urea elution, protease digestion, LC-MS; cells with untagged RRM2B as negative control

By UniProt entry, the sequences of proteins in these tests, tags left out.
UniProt Q7LG56: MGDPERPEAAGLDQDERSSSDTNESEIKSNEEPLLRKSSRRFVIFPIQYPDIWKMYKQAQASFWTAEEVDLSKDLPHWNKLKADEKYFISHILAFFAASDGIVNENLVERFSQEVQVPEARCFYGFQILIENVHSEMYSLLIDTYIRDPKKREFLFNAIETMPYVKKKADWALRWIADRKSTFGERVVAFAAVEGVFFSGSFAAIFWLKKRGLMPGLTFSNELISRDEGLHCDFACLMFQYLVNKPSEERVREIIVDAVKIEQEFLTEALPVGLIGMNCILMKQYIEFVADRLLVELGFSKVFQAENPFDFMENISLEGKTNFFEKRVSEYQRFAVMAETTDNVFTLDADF
UniProt P31350: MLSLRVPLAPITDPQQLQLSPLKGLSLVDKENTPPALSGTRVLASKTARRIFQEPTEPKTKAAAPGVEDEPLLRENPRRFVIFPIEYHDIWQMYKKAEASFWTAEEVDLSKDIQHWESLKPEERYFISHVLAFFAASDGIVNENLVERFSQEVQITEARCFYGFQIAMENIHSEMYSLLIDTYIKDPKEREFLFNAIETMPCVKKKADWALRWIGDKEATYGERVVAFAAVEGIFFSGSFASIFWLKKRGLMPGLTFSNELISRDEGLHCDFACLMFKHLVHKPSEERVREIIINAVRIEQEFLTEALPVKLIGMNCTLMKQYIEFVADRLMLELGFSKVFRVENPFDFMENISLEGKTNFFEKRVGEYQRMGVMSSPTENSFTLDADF

RRM2, ribonucleotide reductase small subunit (from UniProt P31350 1-389)
binding: binds
